Values quoted from earlier work in patent publication US5760016A, “Use of mono-3,6-anhydrocyclodextrins for solubilizing a hydrophobic compound and for controlling the purity of an enantiomer and process for the preparation of these cyclodextrins” (priority 1993, dated 1998).
At least one read-out could not be matched to a standard name with certainty.

Details: 25° C., without cyclodextrin; cited from earlier work

For `C[C@]12C=CC(=O)C=C1CC[C@@H]1[C@@H]2[C@@H](O)C[C@@]2(C)[C@H]1CC[C@]2(O)C(=O)CO` [prednisolone], the “solubility in water of prednisolone” value is listed as 700 mM.
